Assay results from patent US12527775B2 (priority 2020, dated 2026).
Structures were worked out from names or drawings and are uncertain.

Chains of the proteins cited; added tags and fusions are not shown.
UniProt P28223, whole entry: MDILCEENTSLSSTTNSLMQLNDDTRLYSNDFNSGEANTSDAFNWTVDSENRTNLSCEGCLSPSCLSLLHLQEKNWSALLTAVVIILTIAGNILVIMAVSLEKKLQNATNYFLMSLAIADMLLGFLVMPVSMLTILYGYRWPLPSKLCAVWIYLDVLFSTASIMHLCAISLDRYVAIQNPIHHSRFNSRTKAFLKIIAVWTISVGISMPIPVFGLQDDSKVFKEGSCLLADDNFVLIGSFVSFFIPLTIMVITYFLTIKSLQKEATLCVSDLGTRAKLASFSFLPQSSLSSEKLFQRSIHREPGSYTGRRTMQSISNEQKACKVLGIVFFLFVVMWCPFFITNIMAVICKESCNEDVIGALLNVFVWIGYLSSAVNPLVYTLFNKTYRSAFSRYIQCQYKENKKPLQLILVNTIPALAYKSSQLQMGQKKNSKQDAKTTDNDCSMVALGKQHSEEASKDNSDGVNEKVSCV

Biological target: human recombinant 5-HT2A receptor (Homo sapiens (Human), UniProt P28223)
Conditions: read-out: h-5-HT2A Ki

CC(C)COc1ccc(CNC(=O)N(Cc2cc[nH]n2)C2CCN(C)CC2)cc1
Ki: 10 to 100 nM
